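Malaria parasite (P. falciparum) lines kept in red blood cells; parasite DNA is measured by SYBR Green fluorescence after lysis, 72 h after compound addition. Each compound was titrated across a series from about 0.000037 to 29 µM. The number is the fitted AC50, the concentration giving a half-maximal change in signal; a lower value means higher potency, whether the curve shows a decrease or an increase. Calls follow the curve class and fit quality: every row here is inconclusive, covering signal-raising curves and weak, poorly fitted, partial or highest-dose-only inhibition curves.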

Values are in µM. All entries here are filed as inconclusive. Only part of the assay is shown, chiefly results filed as inconclusive. Potencies fitted to partial, single-point or poorly fitting curves are rough. Some entries filed as inconclusive have a full curve. The first word of each remark tells which way the curve ran; it can be opposite to the aim of the assay.

compound,setting,potency (µM),remark
CN1CCN(CCC(=O)N2c3ccccc3Sc3ccc(C(F)(F)F)cc32)CC1,DIV30,9.528,"inhibitor, partial curve"
CN1CCN(CCC(=O)N2c3ccccc3Sc3ccc(C(F)(F)F)cc32)CC1,Dd2,5.623,"inhibitor, partial curve"
CN1CCN(CCC(=O)N2c3ccccc3Sc3ccc(C(F)(F)F)cc32)CC1,AA1029,11.22,"inhibitor, single point"
CN1CCN(CCC(=O)N2c3ccccc3Sc3ccc(C(F)(F)F)cc32)CC1,PC49,10,"inhibitor, partial curve"
CN1CCN(CCC(=O)N2c3ccccc3Sc3ccc(C(F)(F)F)cc32)CC1,CP203,16.94,"inhibitor, partial curve, poor fit"
CN1CCN(CCC(=O)N2c3ccccc3Sc3ccc(C(F)(F)F)cc32)CC1,CP185,4.467,"inhibitor, partial curve"
CN1CCN(CCC(=O)N2c3ccccc3Sc3ccc(C(F)(F)F)cc32)CC1,GB4,10.69,"inhibitor, partial curve"
CN1CCN(CCC(=O)N2c3ccccc3Sc3ccc(C(F)(F)F)cc32)CC1,CP247,6.31,"inhibitor, partial curve"
CN1CCN(CCC(=O)N2c3ccccc3Sc3ccc(C(F)(F)F)cc32)CC1,CP335,4.776,"inhibitor, partial curve, poor fit"
CN1CCN(CCC(=O)N2c3ccccc3Sc3ccc(C(F)(F)F)cc32)CC1,PC15,11.22,"inhibitor, single point"
CN1CCN(CCC(=O)N2c3ccccc3Sc3ccc(C(F)(F)F)cc32)CC1,PC26,5.358,"inhibitor, partial curve, poor fit"
CN1CCN(CCC(=O)N2c3ccccc3Sc3ccc(C(F)(F)F)cc32)CC1,CP237,5.623,"inhibitor, partial curve, poor fit"
CN1CCN(CCC(=O)N2c3ccccc3Sc3ccc(C(F)(F)F)cc32)CC1,ECU,10,"inhibitor, single point"
CN1CCN(CCC(=O)N2c3ccccc3Sc3ccc(C(F)(F)F)cc32)CC1,CP286,15.85,"inhibitor, single point"
CN1CCN(CCC(=O)N2c3ccccc3Sc3ccc(C(F)(F)F)cc32)CC1,CP262,15.1,"activator, partial curve, poor fit"
CN1CCN(CCC(=O)N2c3ccccc3Sc3ccc(C(F)(F)F)cc32)CC1,TAB109,2.512,"inhibitor, full curve"
COc1ccc(-c2cc(=S)ss2)cc1,DIV30,19.01,"inhibitor, single point"
COc1ccc(-c2cc(=S)ss2)cc1,TAB165,19.95,"inhibitor, single point"
COc1ccc(-c2cc(=S)ss2)cc1,P94_40,17.78,"inhibitor, single point"
COc1ccc(-c2cc(=S)ss2)cc1,SC27B,15.85,"inhibitor, single point"
COc1ccc(-c2cc(=S)ss2)cc1,CP203,13.46,"inhibitor, partial curve, poor fit"
COc1ccc(-c2cc(=S)ss2)cc1,TAB113,17.78,"inhibitor, single point"
COc1ccc(-c2cc(=S)ss2)cc1,PAD,12.59,"inhibitor, single point"
COc1ccc(-c2cc(=S)ss2)cc1,P93_24,11.22,"inhibitor, single point"
CCC1C(C)=NN=C(c2ccc(OC)c(OC)c2)c2cc(OC)c(OC)cc21 (stereo not given),CP297,19.01,"inhibitor, single point"
CCC1C(C)=NN=C(c2ccc(OC)c(OC)c2)c2cc(OC)c(OC)cc21 (stereo not given),N140,8.912,"inhibitor, single point"
CCC1C(C)=NN=C(c2ccc(OC)c(OC)c2)c2cc(OC)c(OC)cc21 (stereo not given),CP215,21.33,"inhibitor, partial curve, poor fit"
CCC1C(C)=NN=C(c2ccc(OC)c(OC)c2)c2cc(OC)c(OC)cc21 (stereo not given),CP237,14.13,"inhibitor, single point"
CCC1C(C)=NN=C(c2ccc(OC)c(OC)c2)c2cc(OC)c(OC)cc21 (stereo not given),W2,21.33,"inhibitor, single point"
CCC1C(C)=NN=C(c2ccc(OC)c(OC)c2)c2cc(OC)c(OC)cc21 (stereo not given),CP286,17.78,"inhibitor, single point"
CCC1C(C)=NN=C(c2ccc(OC)c(OC)c2)c2cc(OC)c(OC)cc21 (stereo not given),P93_24,12.59,"inhibitor, single point"
CCC1C(C)=NN=C(c2ccc(OC)c(OC)c2)c2cc(OC)c(OC)cc21 (stereo not given),CP211,15.1,"inhibitor, partial curve, poor fit"
CCC1C(C)=NN=C(c2ccc(OC)c(OC)c2)c2cc(OC)c(OC)cc21 (stereo not given),DIV14,10.69,"inhibitor, partial curve"
CCC1C(C)=NN=C(c2ccc(OC)c(OC)c2)c2cc(OC)c(OC)cc21 (stereo not given),PC26,7.569,"inhibitor, partial curve"
CCC1C(C)=NN=C(c2ccc(OC)c(OC)c2)c2cc(OC)c(OC)cc21 (stereo not given),DIV17,12,"inhibitor, partial curve"
CCCCCC[C@@H](O)C/C=C\CCCCCCCC(=O)O,CP266,0.1694,"inhibitor, full curve, poor fit"
C[C@]12CC[C@H]3[C@@H](CC[C@@]45O[C@@H]4C(=O)C(C#N)C[C@]35C)[C@@H]1CC[C@@H]2O (stereo not given in full),ICS,17.78,"inhibitor, single point"
C[C@]12CC[C@H]3[C@@H](CC[C@@]45O[C@@H]4C(=O)C(C#N)C[C@]35C)[C@@H]1CC[C@@H]2O (stereo not given in full),GB4,6.746,"inhibitor, partial curve, poor fit"
C[C@]12CC[C@H]3[C@@H](CC[C@@]45O[C@@H]4C(=O)C(C#N)C[C@]35C)[C@@H]1CC[C@@H]2O (stereo not given in full),TAB165,3.548,"inhibitor, single point"
C[C@]12CC[C@H]3[C@@H](CC[C@@]45O[C@@H]4C(=O)C(C#N)C[C@]35C)[C@@H]1CC[C@@H]2O (stereo not given in full),CP250,2.239,"inhibitor, single point"
C[C@]12CC[C@H]3[C@@H](CC[C@@]45O[C@@H]4C(=O)C(C#N)C[C@]35C)[C@@H]1CC[C@@H]2O (stereo not given in full),AS120,3.981,"inhibitor, single point"

The first 2 entries again:

{"compound": "CN1CCN(CCC(=O)N2c3ccccc3Sc3ccc(C(F)(F)F)cc32)CC1", "setting": "DIV30", "potency (µM)": "9.528", "remark": "inhibitor, partial curve"}
{"compound": "CN1CCN(CCC(=O)N2c3ccccc3Sc3ccc(C(F)(F)F)cc32)CC1", "setting": "Dd2", "potency (µM)": "5.623", "remark": "inhibitor, partial curve"}

From PubChem BioAssay record AID504749 (NCATS, 2011).